From patent US20240218022A1, “ANTI-VISTA MACROCYCLIC PEPTIDES AND COMPOSITIONS” (BRISTOL-MYERS SQUIBB COMPANY, priority 2022, published 2024)
Where two headings read alike, the source gives them in different places. Not every detail of the peptide structures is certain; ends, links or a residue may be inferred. At least one structure is not confirmed: it was looked up by name or label, or the drawing left a doubt. Starred links: 1 amine or outer side, 2 acyl side, 3 side chain; linkers in the order of their positions; H or OH if unused. Positions of bridges follow the written chain, without caps; N, C: chain ends. Non-standard residues stand in square brackets, D forms with d. Residues, ends and D or L forms follow the SMILES beside them. Ala(indol-4-yl) = N[C@@H](Cc1cccc2[nH]ccc12)C(=O)O; Phe(2,4-F2) = N[C@@H](Cc1ccc(F)cc1F)C(=O)O; Phe(2-CN) = N#Cc1ccccc1C[C@H](N)C(=O)O; Phe(3-Me) = Cc1cccc(C[C@H](N)C(=O)O)c1; γGlu = O=C(O)[C@H](CCC(=O)[*:2])N[*:1]; 2Nal = N[C@@H](Cc1ccc2ccccc2c1)C(=O)O; βAsp = O=C(O)[C@H](CC(=O)[*:2])N[*:1]; Tic = O=C(O)[C@@H]1Cc2ccccc2CN1; Ahp(2) = CCCCC[C@H](N)C(=O)O; NMeNle = CCCC[C@H](NC)C(=O)O; Tle = CC(C)(C)[C@H](N)C(=O)O; NHexGly = CCCCCCNCC(=O)O; Nle = CCCC[C@H](N)C(=O)O; Orn = NCCC[C@H](N)C(=O)O; Aun = NCCCCCCCCCCC(=O)O; Dab = NCC[C@H](N)C(=O)O; AEEA = NCCOCCOCC(=O)O

Biological target: T1, mouse VISTA (mVISTA) (Mus musculus, UniProt Q9D659)
T1 construct: expressed in transfected cells; host or cells: Human embryonic kidney 293T cells
T1 sequence (Q9D659 33-308): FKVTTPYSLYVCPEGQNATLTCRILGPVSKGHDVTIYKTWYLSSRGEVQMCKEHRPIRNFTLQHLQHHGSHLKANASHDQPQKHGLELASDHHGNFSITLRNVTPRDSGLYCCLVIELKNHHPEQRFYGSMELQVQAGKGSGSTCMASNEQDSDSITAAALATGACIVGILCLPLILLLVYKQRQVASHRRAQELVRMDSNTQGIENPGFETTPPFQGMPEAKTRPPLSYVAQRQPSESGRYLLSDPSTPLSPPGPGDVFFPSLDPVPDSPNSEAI
Test: Cell-Based Binding High-Content Assay For mVISTA (HC CBA mVISTA)
In short: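 293T cells expressing mouse VISTA, with compounds added either after seeding ("no wash") or before seeding and then washed out after 1 h. Biotinylated peptide 2 nM for 30 min at room temperature, then detection with Alexa 647–streptavidin. After fixation with Hoechst stain, plates were high-content imaged; IC50 from four-parameter logistic fit.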

[1] = the 20th table, scaffold drawing 23, read-out: HC CBA mVISTA IC50

Structure (SMILES) | IC50 (read-out: HC CBA mVISTA IC50) | also measured
CCCCCCN1CC(=O)N[C@@H](Cc2ccc(O)cc2)C(=O)N[C@@H](CCCC)C(=O)N[C@@H](CC(N)=O)C(=O)N[C@@H](CCCNC(=N)N)C(=O)N[C@@H](CC(C)C)C(=O)N[C@@H](CCCCC)C(=O)N2CCC[C@H]2C(=O)N[C@@H](C(C)C)C(=O)N[C@@H](CC(=O)O)C(=O)N[C@H](C(=O)NCC(=O)O)CSCC(=O)N[C@@H](Cc2cccc3[nH]ccc23)C(=O)N[C@@H](Cc2ccc(O)cc2)C(=O)N[C@@H](CC(=O)O)C1=O [compound 1149] ({CH2CO}-[Ala(indol-4-yl)]YD[NHexGly]Y[Nle]NRL[Ahp(2)]PVDCG-OH; thioether N-14) | 0.0036 µM | 
CCCCCCN1CC(=O)N[C@@H](Cc2ccc(O)cc2)C(=O)N[C@@H](CCCC)C(=O)N[C@@H](CC(N)=O)C(=O)N[C@@H](CCCNC(=N)N)C(=O)N[C@@H](CC(C)C)C(=O)N[C@@H](CCCCC)C(=O)N2CCC[C@H]2C(=O)N[C@@H](C(C)C)C(=O)N[C@@H](CC(=O)O)C(=O)N[C@H](C(=O)NCC(=O)N[C@@H](CCC(=O)NCCOCCOCC(=O)N[C@@H](CC(=O)O)C(=O)NCCOCCOCC(=O)NCCCCCCCCCCC(=O)O)C(=O)O)CSCC(=O)N[C@@H](Cc2cccc(C)c2)C(=O)N[C@@H](Cc2c[nH]c3ccccc23)C(=O)N[C@@H](CC(=O)O)C1=O [compound 2126] ({CH2CO}-[Phe(3-Me)]WD[NHexGly]Y[Nle]NRL[Ahp(2)]PVDCG[γGlu][AEEA]D[AEEA][Aun]-OH; thioether N-14) | 0.0136 µM | 
CCCCCCN1CC(=O)N[C@@H](Cc2ccc(O)cc2)C(=O)N[C@@H](CCCC)C(=O)N[C@H](CC(N)=O)C(=O)N[C@@H](CCCNC(=N)N)C(=O)N[C@@H](CC(C)C)C(=O)N[C@@H](CCCCC)C(=O)N2CCC[C@H]2C(=O)N[C@@H](C(C)C)C(=O)N[C@@H](CC(=O)O)C(=O)N[C@H](C(=O)NCC(=O)O)CSCC(=O)N[C@@H](Cc2ccc(F)cc2F)C(=O)N[C@@H](Cc2c[nH]c3ccccc23)C(=O)N[C@@H](CC(=O)O)C1=O [compound 1466] ({CH2CO}-[Phe(2,4-F2)]WD[NHexGly]Y[Nle][dN]RL[Ahp(2)]PVDCG-OH; thioether N-14) |  | IC50 [1]: 0.0033 µM
CCCCCCN1CC(=O)N[C@@H](Cc2ccc(O)cc2)C(=O)N[C@@H](CCCC)C(=O)N[C@@H](CC(N)=O)C(=O)N[C@@H](CCCNC(=N)N)C(=O)N(C)[C@@H](CCCC)C(=O)N[C@@H](CCCCC)C(=O)N2CCC[C@H]2C(=O)N[C@@H](C(C)(C)C)C(=O)N[C@@H](CO)C(=O)N[C@H](C(=O)N[C@@H](CC(=O)NCCOCCOCC(=O)N[C@@H](CC(=O)O)C(=O)NCCOCCOCC(=O)NCCCCCCCCCCC(=O)O)C(=O)O)CSCC(=O)N[C@@H](Cc2ccccc2)C(=O)N[C@@H](Cc2ccc(O)cc2)C(=O)N[C@@H](CC(=O)O)C1=O [compound 2020] ({CH2CO}-FYD[NHexGly]Y[Nle]NR[NMeNle][Ahp(2)]P[Tle]SC[βAsp][AEEA]D[AEEA][Aun]-OH; thioether N-14) |  | IC50 (cell-based binding high-content assay, mVISTA, read-out: HC CBA miPr ISTA IC50): 0.0227 µM
CCCCCCN1CC(=O)N[C@@H](Cc2ccc(O)cc2)C(=O)N[C@@H](CC(C)C)C(=O)N[C@@H](CC(N)=O)C(=O)N[C@@H](CCCNC(=N)N)C(=O)N[C@@H](CC(C)C)C(=O)N[C@@H](CCCCC)C(=O)N2CCC[C@H]2C(=O)N[C@@H](C(C)C)C(=O)N[C@@H](CO)C(=O)N[C@H](C(=O)NCC(=O)N[C@@H](CCC(=O)NCCOCCOCC(=O)N[C@@H](CC(=O)O)C(=O)NCCOCCOCC(=O)NCCCCCCCCCCC(=O)O)C(=O)O)CSCC(=O)N[C@@H](Cc2ccccc2)C(=O)N[C@@H](Cc2ccc(O)cc2)C(=O)N[C@@H](CC(=O)O)C1=O [compound 2117] ({CH2CO}-FYD[NHexGly]YLNRL[Ahp(2)]PVSCG[γGlu][AEEA]D[AEEA][Aun]-OH; thioether N-14) | 0.0335 µM | 
CCCCCCN1CC(=O)N[C@@H](Cc2ccc(O)cc2)C(=O)N[C@@H](CC(C)C)C(=O)N[C@@H](CC(N)=O)C(=O)N[C@@H](CCCNC(=N)N)C(=O)N[C@@H](CC(C)C)C(=O)N[C@@H](CCCCC)C(=O)N2CCC[C@H]2C(=O)N[C@@H](C(C)C)C(=O)N[C@@H](CO)C(=O)N[C@H](C(=O)NCC(=O)N[C@@H](CC(=O)NCCOCCOCC(=O)N[C@@H](CC(=O)O)C(=O)NCCOCCOCC(=O)NCCCCCCCCCCC(=O)O)C(=O)O)CSCC(=O)N[C@@H](Cc2ccccc2)C(=O)N[C@@H](Cc2ccc(O)cc2)C(=O)N[C@@H](CC(=O)O)C1=O [compound 2102] ({CH2CO}-FYD[NHexGly]YLNRL[Ahp(2)]PVSCG[βAsp][AEEA]D[AEEA][Aun]-OH; thioether N-14) | 0.0189 µM | 
CCCCCCN1CC(=O)N[C@@H](Cc2ccc(O)cc2)C(=O)N[C@@H](CC(C)C)C(=O)N[C@@H](CC(N)=O)C(=O)N[C@@H](CCCN)C(=O)N(C)[C@@H](CCCC)C(=O)N[C@@H](CCCCC)C(=O)N2CCC[C@H]2C(=O)N[C@@H](C(C)(C)C)C(=O)N[C@@H](CO)C(=O)N[C@H](C(=O)N[C@@H](CCC(=O)N[C@@H](CCN)C(=O)NCCCCCCCCCCC(=O)O)C(=O)O)CSCC(=O)N[C@@H](Cc2ccccc2)C(=O)N[C@@H](Cc2ccc(O)cc2)C(=O)N[C@@H](CC(=O)O)C1=O [Example 2324] ({CH2CO}-FYD[NHexGly]YLN[Orn][NMeNle][Ahp(2)]P[Tle]SC[γGlu][Dab][Aun]-OH; thioether N-14) |  | IC50 (cell-based binding high-content assay, read-out: HC CBA mVISTA IC50): 0.0221 µM
CCCCCCN1CC(=O)N[C@@H](Cc2ccc(O)cc2)C(=O)N[C@@H](CCCC)C(=O)N[C@@H](CC(N)=O)C(=O)N[C@@H](CCCNC(=N)N)C(=O)N2Cc3ccccc3C[C@H]2C(=O)N[C@@H](CCCCC)C(=O)N2CCC[C@H]2C(=O)N[C@@H](C(C)C)C(=O)N[C@@H](CO)C(=O)N[C@H](C(=O)N[C@@H](CC(=O)NCCOCCOCC(=O)NCCCCCCCCCCC(=O)O)C(=O)O)CSCC(=O)N[C@@H](Cc2ccccc2)C(=O)N[C@@H](Cc2c[nH]c3ccccc23)C(=O)N[C@@H](CC(=O)O)C1=O [Example 2166] ({CH2CO}-FWD[NHexGly]Y[Nle]NR[Tic][Ahp(2)]PVSC[βAsp][AEEA][Aun]-OH; thioether N-14) | 0.0097 µM | 
CCCCCCN1CC(=O)N[C@@H](Cc2ccc(O)cc2)C(=O)N[C@@H](CCCC)C(=O)NCC(=O)N[C@@H](CCCNC(=N)N)C(=O)N[C@@H](CC(C)C)C(=O)N[C@@H](CCCCC)C(=O)N2CCC[C@H]2C(=O)N[C@@H](C(C)C)C(=O)N[C@@H](CC(=O)O)C(=O)N[C@H](C(=O)NCCOCCOCC(=O)N[C@@H](CC(=O)O)C(=O)NCCOCCOCC(=O)NCCCCCCCCCCC(=O)O)CSCC(=O)N[C@@H](Cc2cccc(C)c2)C(=O)N[C@@H](Cc2ccc(O)cc2)C(=O)N[C@@H](CC(=O)O)C1=O [compound 2294] ({CH2CO}-[Phe(3-Me)]YD[NHexGly]Y[Nle]GRL[Ahp(2)]PVDC[AEEA]D[AEEA][Aun]-OH; thioether N-14) |  | IC50 (cell-based binding high-content assay, read-out: HC CBA miPrISTA IC50): 0.0165 µM
CCCCCCN1CC(=O)N[C@@H](Cc2ccc(O)cc2)C(=O)N[C@@H](CCCC)C(=O)N[C@@H](CC(N)=O)C(=O)N[C@@H](CCCNC(=N)N)C(=O)N(C)[C@@H](CCCC)C(=O)N[C@@H](CCCCC)C(=O)N2CCC[C@H]2C(=O)N[C@@H](C(C)C)C(=O)N[C@@H](CC(=O)O)C(=O)N[C@H](C(=O)N[C@@H](CCCCN)C(=O)N[C@@H](CC(N)=O)C(=O)O)CSCC(=O)N[C@@H](Cc2ccc3ccccc3c2)C(=O)N[C@@H](Cc2c[nH]c3ccccc23)C(=O)N[C@@H](CC(=O)O)C1=O [compound 1138] ({CH2CO}-[2Nal]WD[NHexGly]Y[Nle]NR[NMeNle][Ahp(2)]PVDCKN-OH; thioether N-14) | 0.0172 µM | 
CCCCCCN1CC(=O)N[C@@H](Cc2ccc(O)cc2)C(=O)N[C@@H](CCCC)C(=O)N[C@@H](CC(N)=O)C(=O)N[C@@H](CCCNC(=N)N)C(=O)N(C)[C@@H](CCCC)C(=O)N[C@@H](CCCCC)C(=O)N2CCC[C@H]2C(=O)N[C@@H](C(C)C)C(=O)N[C@@H](CO)C(=O)N[C@H](C(=O)N[C@@H](CC(=O)NCCOCCOCC(=O)NCCCCCCCCCCC(=O)O)C(=O)O)CSCC(=O)N[C@@H](Cc2ccc3ccccc3c2)C(=O)N[C@@H](Cc2ccc(O)cc2)C(=O)N[C@@H](CC(=O)O)C1=O [Example 2159] ({CH2CO}-[2Nal]YD[NHexGly]Y[Nle]NR[NMeNle][Ahp(2)]PVSC[βAsp][AEEA][Aun]-OH; thioether N-14) | 0.0255 µM | 
CCCCCCN1CC(=O)N[C@@H](Cc2ccc(O)cc2)C(=O)N[C@@H](CCCC)C(=O)NCC(=O)N[C@@H](CCCNC(=N)N)C(=O)N[C@@H](CC(C)C)C(=O)N[C@@H](CCCCC)C(=O)N2CCC[C@H]2C(=O)N[C@@H](C(C)C)C(=O)N[C@@H](CC(=O)O)C(=O)N[C@H](C(=O)NCC(=O)O)CSCC(=O)N[C@@H](Cc2ccc3ccccc3c2)C(=O)N[C@@H](Cc2ccccc2C#N)C(=O)N[C@@H](CC(=O)O)C1=O [compound 1453] ({CH2CO}-[2Nal][Phe(2-CN)]D[NHexGly]Y[Nle]GRL[Ahp(2)]PVDCG-OH; thioether N-14) |  | IC50 [1]: 0.0395 µM
CCCCCCN1CC(=O)N[C@@H](Cc2ccc(O)cc2)C(=O)N[C@@H](CCCC)C(=O)NCC(=O)N[C@@H](CCCNC(=N)N)C(=O)N[C@@H](CC(C)C)C(=O)N[C@@H](CCCCC)C(=O)N2CCC[C@@H]2C(=O)N[C@@H](C(C)C)C(=O)N[C@@H](CC(=O)O)C(=O)N[C@H](C(=O)NCC(=O)N[C@@H](CC(=O)NCCOCCOCC(=O)N[C@@H](CC(=O)O)C(=O)NCCOCCOCC(=O)NCCCCCCCCCCC(=O)O)C(=O)O)CSCC(=O)N[C@@H](Cc2cccc(C)c2)C(=O)N[C@@H](Cc2ccc(O)cc2)C(=O)N[C@@H](CC(=O)O)C1=O [compound 2105] ({CH2CO}-[Phe(3-Me)]YD[NHexGly]Y[Nle]GRL[Ahp(2)][dP]VDCG[βAsp][AEEA]D[AEEA][Aun]-OH; thioether N-14) | 0.0498 µM | 
